PMC13429693, “Disease-associated genetic variants can cause missense effects in tissue-specific protein isoforms” (Nature Communications, 2026)
Results are given in words; binding and its absence hold for the method and conditions named. In cells and extracts the contact can be indirect. Some entries that bind do so weakly or less than the wild type. Sequences can lack the tags named with a protein.

Molecular target: DPP9-short-YFP (human), Q86TI2
Experiment: co-IP; HEK293T cells co-transfected with YFP-tagged DPP9 isoforms and NLRP1-Flag; NP-40 lysis buffer (50 mM Tris-HCl pH 7.4, 150 mM NaCl, 1% NP-40, 5 mM EDTA); GFP-Trap magnetic agarose beads overnight at 4 °C; blots with α-GFP and α-Flag
Settings: remark: other sources report otherwise

B1: NLRP1-Flag, Q9C000 1-1473 (protein)
chain: MAGGAWGRLACYLEFLKKEELKEFQLLLANKAHSRSSSGETPAQPEKTSGMEVASYLVAQYGEQRAWDLALHTWEQMGLRSLCAQAQEGAGHSPSFPYSPSEPHLGSPSQPTSTAVLMPWIHELPAGCTQGSERRVLRQLPDTSGRRWREISASLLYQALPSSPDHESPSQESPNAPTSTAVLGSWGSPPQPSLAPREQEAPGTQWPLDETSGIYYTEIREREREKSEKGRPPWAAVVGTPPQAHTSLQPHHHPWEPSVRESLCSTWPWKNEDFNQKFTQLLLLQRPHPRSQDPLVKRSWPDYVEENRGHLIEIRDLFGPGLDTQEPRIVILQGAAGIGKSTLARQVKEAWGRGQLYGDRFQHVFYFSCRELAQSKVVSLAELIGKDGTATPAPIRQILSRPERLLFILDGVDEPGWVLQEPSSELCLHWSQPQPADALLGSLLGKTILPEASFLITARTTALQNLIPSLEQARWVEVLGFSESSRKEYFYRYFTDERQAIRAFRLVKSNKELWALCLVPWVSWLACTCLMQQMKRKEKLTLTSKTTTTLCLHYLAQALQAQPLGPQLRDLCSLAAEGIWQKKTLFSPDDLRKHGLDGAIISTFLKMGILQEHPIPLSYSFIHLCFQEFFAAMSYVLEDEKGRGKHSNCIIDLEKTLEAYGIHGLFGASTTRFLLGLLSDEGEREMENIFHCRLSQGRNLMQWVPSLQLLLQPHSLESLHCLYETRNKTFLTQVMAHFEEMGMCVETDMELLVCTFCIKFSRHVKKLQLIEGRQHRSTWSPTMVVLFRWVPVTDAYWQILFSVLKVTRNLKELDLSGNSLSHSAVKSLCKTLRRPRCLLETLRLAGCGLTAEDCKDLAFGLRANQTLTELDLSFNVLTDAGAKHLCQRLRQPSCKLQRLQLVSCGLTSDCCQDLASVLSASPSLKELDLQQNNLDDVGVRLLCEGLRHPACKLIRLGLDQTTLSDEMRQELRALEQEKPQLLIFSRRKPSVMTPTEGLDTGEMSNSTSSLKRQRLGSERAASHVAQANLKLLDVSKIFPIAEIAEESSPEVVPVELLCVPSPASQGDLHTKPLGTDDDFWGPTGPVATEVVDKEKNLYRVHFPVAGSYRWPNTGLCFVMREAVTVEIEFCVWDQFLGEINPQHSWMVAGPLLDIKAEPGAVEAVHLPHFVALQGGHVDTSLFQMAHFKEEGMLLEKPARVELHHIVLENPSFSPLGVLLKMIHNALRFIPVTSVVLLYHRVHPEEVTFHLYLIPSDCSIRKAIDDLEMKFQFVRIHKPPPLTPLYMGCRYTVSGSGSGMLEILPKELELCYRSPGEDQLFSEFYVGHLGSGIRLQVKDKKDETLVWEALVKPGDLMPATTLIPPARIAVPSPLDAPQLLHFVDQYREQLIARVTSVEVVLDKLHGQVLSQEQYERVLAENTRPSQMRKLFSLSQSWDRKCKDGLYQALKETHPHLIMELWEKGSKKGLLPLSS
In the case of B1, the binding is reported as “binds”.
